Results as given in patent US6518339B1, “Aldehyde emission reduction for dibenzylidene sorbitol clarified plastics” (Milliken & Company, priority 2000, dated 2003).

Test: Organoleptic taste test of plaque extraction water (ASTM STP 434 / STP 758)
Conditions: General Formulation + 2200 ppm MDBS + 500 ppm ADH, eleven judges, extraction water 50° C. five days, first and second trial
Procedure: Organoleptic testing was carried out based on the general guidelines given in ASTM STP 434 and STP 758. Six 3″×2″×0.05″ plaques of both formulations listed in Table III were placed into ajar containing 700 ml of tap water. Glass pipettes were used to separate the plaques and ensure all surface area was exposed to the extraction water. These jars were then placed into an oven and held at 50° C. for five days. The jars were refrigerated for one day and the extraction water was decanted into cups for taste testing. Each of eleven judges were presented with two pairs of cups and asked to evaluate each cup in a pair against the other and report in which water sample they detected the least taste. The pair tasted contained extraction water from plaques containing 2200 ppm MDBS and extraction water from a similar formulation that additionally had been compounded with 500 ppm of adipic dihydrazide (ADH) (EXAMPLE 2, above). When run in accordance with the ASTM procedures, a statistically significant majority of judges is nine.

NNC(=O)CCCCC(=O)NN [Example 2, Adipic dihydrazide]
Number of Judges Selecting Listed Formulations as Having Least Taste: 11 and 9

“And” between values parts separate entries of the source, which are not always exact repeats. Equal entries are not always repeated.
